Experimental data published in article PMC6220335, “Molecular structure of promoter-bound yeast TFIID” (Nature Communications, 2018).
Results are given in words; binding and its absence hold for the method and conditions named. A result given as binding can be weak or reduced; the word gives no strength.

Target: T1, Taf1 (TBP-associated factor 1), subunit of Komagataella phaffii TFIID (Komagataella phaffii) (UniProt F2QMX2)
T1 sequence: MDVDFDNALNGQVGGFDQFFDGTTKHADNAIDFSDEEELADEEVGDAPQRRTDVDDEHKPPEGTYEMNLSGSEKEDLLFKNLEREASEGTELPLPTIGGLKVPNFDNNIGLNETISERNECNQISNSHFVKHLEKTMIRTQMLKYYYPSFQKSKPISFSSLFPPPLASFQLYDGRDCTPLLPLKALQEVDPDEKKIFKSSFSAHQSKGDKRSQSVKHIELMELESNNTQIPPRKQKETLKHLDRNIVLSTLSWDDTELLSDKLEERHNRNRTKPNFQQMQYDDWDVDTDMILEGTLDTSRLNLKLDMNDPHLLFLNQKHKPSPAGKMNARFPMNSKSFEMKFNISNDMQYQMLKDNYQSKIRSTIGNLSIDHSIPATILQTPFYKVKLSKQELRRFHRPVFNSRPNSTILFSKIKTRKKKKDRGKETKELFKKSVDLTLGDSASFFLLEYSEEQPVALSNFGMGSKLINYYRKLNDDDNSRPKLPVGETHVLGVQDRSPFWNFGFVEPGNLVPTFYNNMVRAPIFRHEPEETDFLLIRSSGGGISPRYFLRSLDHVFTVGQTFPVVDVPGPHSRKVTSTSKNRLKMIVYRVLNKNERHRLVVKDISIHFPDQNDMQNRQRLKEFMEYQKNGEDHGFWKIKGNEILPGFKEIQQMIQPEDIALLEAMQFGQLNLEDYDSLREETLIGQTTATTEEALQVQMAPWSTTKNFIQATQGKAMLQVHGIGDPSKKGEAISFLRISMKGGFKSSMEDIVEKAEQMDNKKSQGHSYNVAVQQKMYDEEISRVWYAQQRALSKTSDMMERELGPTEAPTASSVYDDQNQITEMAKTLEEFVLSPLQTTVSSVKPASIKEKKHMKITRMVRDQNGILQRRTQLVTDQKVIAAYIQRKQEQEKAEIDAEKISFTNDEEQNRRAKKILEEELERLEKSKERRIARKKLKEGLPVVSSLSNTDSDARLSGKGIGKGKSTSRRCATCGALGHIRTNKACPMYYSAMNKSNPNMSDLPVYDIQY
Test: cross-linking; 50 µg purified TFIID, 3 mM BS3, 2 h at 25 °C; trypsin, SCX fractionation, Orbitrap Fusion MS; pLink and Nexus, 5% FDR; both purified

In the case of “TATA-box Binding Protein (TBP), subunit of Komagataella phaffii TFIID”, the binding is reported as “binds”.
